# Article PMC3708830
# The chains behind the UniProt entries cited, without tags or fusion partners.
# UniProt O09106: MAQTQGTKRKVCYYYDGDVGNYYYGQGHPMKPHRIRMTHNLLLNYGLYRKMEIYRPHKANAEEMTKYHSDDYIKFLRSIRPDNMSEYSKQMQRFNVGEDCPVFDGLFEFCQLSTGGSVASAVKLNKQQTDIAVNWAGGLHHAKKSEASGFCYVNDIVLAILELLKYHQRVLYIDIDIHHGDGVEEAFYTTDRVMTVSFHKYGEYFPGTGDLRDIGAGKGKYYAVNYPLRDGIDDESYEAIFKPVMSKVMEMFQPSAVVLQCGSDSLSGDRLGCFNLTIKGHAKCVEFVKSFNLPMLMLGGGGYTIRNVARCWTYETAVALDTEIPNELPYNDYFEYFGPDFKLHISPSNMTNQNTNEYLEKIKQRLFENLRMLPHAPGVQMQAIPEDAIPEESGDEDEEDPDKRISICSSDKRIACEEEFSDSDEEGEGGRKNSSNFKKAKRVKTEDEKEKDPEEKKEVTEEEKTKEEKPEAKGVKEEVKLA
# UniProt P70288: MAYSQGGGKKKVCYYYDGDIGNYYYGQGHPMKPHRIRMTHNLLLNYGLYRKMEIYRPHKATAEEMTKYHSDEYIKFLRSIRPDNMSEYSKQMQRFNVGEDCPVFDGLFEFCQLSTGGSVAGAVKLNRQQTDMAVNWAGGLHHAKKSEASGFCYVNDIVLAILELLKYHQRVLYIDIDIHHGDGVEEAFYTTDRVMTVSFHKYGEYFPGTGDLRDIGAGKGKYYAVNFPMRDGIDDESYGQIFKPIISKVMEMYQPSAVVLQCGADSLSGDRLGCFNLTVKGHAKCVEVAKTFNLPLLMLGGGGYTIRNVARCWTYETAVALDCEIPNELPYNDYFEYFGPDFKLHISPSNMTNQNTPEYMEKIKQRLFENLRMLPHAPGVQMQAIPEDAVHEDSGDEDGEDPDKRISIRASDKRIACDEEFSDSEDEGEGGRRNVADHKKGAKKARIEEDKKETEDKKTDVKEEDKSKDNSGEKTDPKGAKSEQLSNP
# Results are given in words; binding and its absence hold for the method and conditions named. In cells and extracts the contact can be indirect. Some binding calls cover weakened binding; strength is not graded here. For some assays here: Where a sequence is shown, tags or fusion partners need not be part of it.
# T1: O-linked β-N-acetylglucosamine transferase (mouse (endogenous in ventricular tissue)) (UniProt Q8CGY8)
# T1 sequence: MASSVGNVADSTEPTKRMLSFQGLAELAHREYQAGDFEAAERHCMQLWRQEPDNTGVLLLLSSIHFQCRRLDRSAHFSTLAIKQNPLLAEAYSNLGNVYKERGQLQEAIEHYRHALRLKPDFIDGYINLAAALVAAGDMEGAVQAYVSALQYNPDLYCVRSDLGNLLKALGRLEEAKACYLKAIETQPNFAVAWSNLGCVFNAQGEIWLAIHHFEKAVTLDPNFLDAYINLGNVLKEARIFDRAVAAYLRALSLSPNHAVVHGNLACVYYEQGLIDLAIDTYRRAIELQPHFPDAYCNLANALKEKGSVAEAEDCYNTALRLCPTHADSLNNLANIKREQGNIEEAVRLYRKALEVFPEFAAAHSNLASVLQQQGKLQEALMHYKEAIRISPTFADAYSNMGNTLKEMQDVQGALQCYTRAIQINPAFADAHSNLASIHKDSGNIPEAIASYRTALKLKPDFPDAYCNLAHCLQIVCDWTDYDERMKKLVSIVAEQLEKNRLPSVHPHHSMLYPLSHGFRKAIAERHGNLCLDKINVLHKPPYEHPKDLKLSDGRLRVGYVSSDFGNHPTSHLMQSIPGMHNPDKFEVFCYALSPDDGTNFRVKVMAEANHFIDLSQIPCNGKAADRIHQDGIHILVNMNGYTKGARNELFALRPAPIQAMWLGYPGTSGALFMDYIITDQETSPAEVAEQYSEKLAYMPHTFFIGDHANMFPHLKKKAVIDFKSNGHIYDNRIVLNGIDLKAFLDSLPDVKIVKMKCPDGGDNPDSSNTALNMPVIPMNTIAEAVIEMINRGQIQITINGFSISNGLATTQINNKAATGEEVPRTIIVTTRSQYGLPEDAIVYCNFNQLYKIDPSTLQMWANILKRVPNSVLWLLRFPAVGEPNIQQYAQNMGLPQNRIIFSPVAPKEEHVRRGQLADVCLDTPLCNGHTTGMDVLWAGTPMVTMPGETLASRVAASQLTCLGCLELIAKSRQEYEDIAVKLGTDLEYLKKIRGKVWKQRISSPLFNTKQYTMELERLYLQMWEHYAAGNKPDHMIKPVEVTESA
# T2: Mammalian switch-independent 3A (mouse (endogenous in ventricular tissue)) (UniProt Q60520)
# T2 sequence: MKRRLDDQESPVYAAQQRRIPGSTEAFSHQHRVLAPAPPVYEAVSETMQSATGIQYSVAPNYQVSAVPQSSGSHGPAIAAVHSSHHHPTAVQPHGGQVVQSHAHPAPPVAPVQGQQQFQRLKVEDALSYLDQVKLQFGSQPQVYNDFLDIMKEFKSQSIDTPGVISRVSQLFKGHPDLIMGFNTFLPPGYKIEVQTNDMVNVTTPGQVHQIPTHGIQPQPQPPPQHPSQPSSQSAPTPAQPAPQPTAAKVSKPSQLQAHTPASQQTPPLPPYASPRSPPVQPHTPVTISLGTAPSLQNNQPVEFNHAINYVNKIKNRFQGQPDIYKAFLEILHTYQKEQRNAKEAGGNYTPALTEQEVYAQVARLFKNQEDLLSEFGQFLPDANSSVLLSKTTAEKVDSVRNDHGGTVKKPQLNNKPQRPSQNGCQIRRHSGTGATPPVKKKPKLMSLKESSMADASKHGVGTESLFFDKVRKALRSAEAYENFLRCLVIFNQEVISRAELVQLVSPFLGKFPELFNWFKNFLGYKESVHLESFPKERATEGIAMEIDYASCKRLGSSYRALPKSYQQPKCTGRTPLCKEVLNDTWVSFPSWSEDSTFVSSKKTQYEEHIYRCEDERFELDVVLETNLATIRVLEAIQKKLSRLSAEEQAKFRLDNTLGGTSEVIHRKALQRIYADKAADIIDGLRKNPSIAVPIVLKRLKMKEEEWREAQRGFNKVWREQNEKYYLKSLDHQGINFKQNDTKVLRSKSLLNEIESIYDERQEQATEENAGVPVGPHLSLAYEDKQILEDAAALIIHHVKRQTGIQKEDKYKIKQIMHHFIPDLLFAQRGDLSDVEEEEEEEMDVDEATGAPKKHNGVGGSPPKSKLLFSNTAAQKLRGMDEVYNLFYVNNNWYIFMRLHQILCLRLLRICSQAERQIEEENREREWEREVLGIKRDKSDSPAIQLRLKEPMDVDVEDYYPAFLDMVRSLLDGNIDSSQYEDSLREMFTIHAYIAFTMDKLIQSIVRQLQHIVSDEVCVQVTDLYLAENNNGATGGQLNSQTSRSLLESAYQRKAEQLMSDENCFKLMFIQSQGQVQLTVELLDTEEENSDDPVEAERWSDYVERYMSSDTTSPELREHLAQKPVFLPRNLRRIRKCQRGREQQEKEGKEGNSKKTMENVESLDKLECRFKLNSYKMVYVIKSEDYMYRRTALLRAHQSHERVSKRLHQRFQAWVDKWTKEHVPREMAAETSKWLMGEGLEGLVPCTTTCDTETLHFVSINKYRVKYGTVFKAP
# Experiments:
# Assay in all cases: co-IP; ventricular lysates of C57BL/6J and db/db mice, sedentary or treadmill exercised for 4 weeks; precleared over protein A/G agarose, IP overnight at 4°C on beads with primary antibody (anti-OGT, anti-mSin3A or anti-HDAC1), eluted at 100°C, immunoblot; lysis buffer with PUGNAc, phosphatase and protease inhibitors; negative control: IP without antibody
# [1] = target: T1, O-linked β-N-acetylglucosamine transferase (mouse (endogenous in ventricular tissue))
# [2] = target: T2, Mammalian switch-independent 3A (mouse (endogenous in ventricular tissue))
# [3] = target: Histone deacetylase 1 (mouse (endogenous in ventricular tissue)) (UniProt O09106)
Molecule,binding [1],binding [2],binding [3]
Histone deacetylase 2 (from UniProt P70288 1-488) (enzyme),binds,binds,
Histone deacetylase 1 (from UniProt O09106 1-482) (enzyme),,binds,

# Further lines, results first:
binding [1],binding [2],binding [3],Molecule
binds,,binds,"Mammalian switch-independent 3A (protein, UniProt Q60520 1-1274) MKRRLDDQESPVYAAQQRRIPGSTEAFSHQHRVLAPAPPVYEAVSETMQSATGIQYSVAPNYQVSAVPQSSGSHGPAIAAVHSSHHHPTAVQPHGGQVVQSHAHPAPPVAPVQGQQQFQRLKVEDALSYLDQVKLQFGSQPQVYNDFLDIMKEFKSQSIDTPGVISRVSQLFKGHPDLIMGFNTFLPPGYKIEVQTNDMVNVTTPGQVHQIPTHGIQPQPQPPPQHPSQPSSQSAPTPAQPAPQPTAAKVSKPSQLQAHTPASQQTPPLPPYASPRSPPVQPHTPVTISLGTAPSLQNNQPVEFNHAINYVNKIKNRFQGQPDIYKAFLEILHTYQKEQRNAKEAGGNYTPALTEQEVYAQVARLFKNQEDLLSEFGQFLPDANSSVLLSKTTAEKVDSVRNDHGGTVKKPQLNNKPQRPSQNGCQIRRHSGTGATPPVKKKPKLMSLKESSMADASKHGVGTESLFFDKVRKALRSAEAYENFLRCLVIFNQEVISRAELVQLVSPFLGKFPELFNWFKNFLGYKESVHLESFPKERATEGIAMEIDYASCKRLGSSYRALPKSYQQPKCTGRTPLCKEVLNDTWVSFPSWSEDSTFVSSKKTQYEEHIYRCEDERFELDVVLETNLATIRVLEAIQKKLSRLSAEEQAKFRLDNTLGGTSEVIHRKALQRIYADKAADIIDGLRKNPSIAVPIVLKRLKMKEEEWREAQRGFNKVWREQNEKYYLKSLDHQGINFKQNDTKVLRSKSLLNEIESIYDERQEQATEENAGVPVGPHLSLAYEDKQILEDAAALIIHHVKRQTGIQKEDKYKIKQIMHHFIPDLLFAQRGDLSDVEEEEEEEMDVDEATGAPKKHNGVGGSPPKSKLLFSNTAAQKLRGMDEVYNLFYVNNNWYIFMRLHQILCLRLLRICSQAERQIEEENREREWEREVLGIKRDKSDSPAIQLRLKEPMDVDVEDYYPAFLDMVRSLLDGNIDSSQYEDSLREMFTIHAYIAFTMDKLIQSIVRQLQHIVSDEVCVQVTDLYLAENNNGATGGQLNSQTSRSLLESAYQRKAEQLMSDENCFKLMFIQSQGQVQLTVELLDTEEENSDDPVEAERWSDYVERYMSSDTTSPELREHLAQKPVFLPRNLRRIRKCQRGREQQEKEGKEGNSKKTMENVESLDKLECRFKLNSYKMVYVIKSEDYMYRRTALLRAHQSHERVSKRLHQRFQAWVDKWTKEHVPREMAAETSKWLMGEGLEGLVPCTTTCDTETLHFVSINKYRVKYGTVFKAP"
binds,binds,,"Repressor element-1 silencing transcription factor (protein, UniProt Q8VIG1 1-1082) MATQVMGQSSGGGSLFNNSANMGMALTNDMYDLHELSKAELAAPQLIMLANVALTGEASGSCCDYLVGEERQMAELMPVGDNHFSESEGEGLEESADLKGLENMELGSLELSAVEPQPVFEASAAPEIYSANKDPAPETPVAEDKCRSSKAKPFRCKPCQYEAESEEQFVHHIRIHSAKKFFVEESAEKQAKAWESGSSPAEEGEFSKGPIRCDRCGYNTNRYDHYMAHLKHHLRAGENERIYKCIICTYTTVSEYHWRKHLRNHFPRKVYTCSKCNYFSDRKNNYVQHVRTHTGERPYKCELCPYSSSQKTHLTRHMRTHSGEKPFKCDQCNYVASNQHEVTRHARQVHNGPKPLNCPHCDYKTADRSNFKKHVELHVNPRQFNCPVCDYAASKKCNLQYHFKSKHPTCPSKTMDVSKVKLKKTKKREADLLNNAVSNEKMENEQTKTKGDVSGKKNEKPVKAVGKDASKEKKPGSSVSVVQVTTRTRKSAVAAETKAAEVKHTDGQTGNNPEKPCKAKKNKRKKDAEAHPSEEPVNEGPVTKKKKKSECKSKIGTNVPKGGGRAEERPGVKKQSASLKKGTKKTPPKTKTSKKGGKLAPKGMGQTEPSSGALAQVGVSPDPALIQAEVTGSGSSQTELPSPMDIAKSEPAQMEVSLTGPPPVEPAQMEPSPAKPPQVEAPTYPQPPQRGPAPPTGPAPPTGPAPPTEPAPPTGLAEMEPSPTEPSQKEPPPSMEPPCPEELPQAEPPPMEDCQKELPSPVEPAQIEVAQTAPTQVQEEPPPVSEPPRVKPTKRSSLRKDRAEKELSLLSEMARQEQVLMGVGLVPVRDSKLLKGNKSAQDPPAPPSPSPKGNSREETPKDQEMVSDGEGTIVFPLKKGGPEEAGESPAELAALKESARVSSSEQNSAMPEGGASHSKCQTGSSGLCDVDTEQKTDTVPMKDSAAEPVSPPTPTVDRDAGSPAVVASPPITLAENESQEIDEDEGIHSHDGSDLSDNMSEGSDDSGLHGARPTPPEATSKNGKAGLAGKVTEGEFVCIFCDRSFRKEKDYSKHLNRHLVNVYFLEEAAEEQEEQEEREEQE"
,binds,,"O-linked β-N-acetylglucosamine transferase (enzyme, UniProt Q8CGY8 1-1046) MASSVGNVADSTEPTKRMLSFQGLAELAHREYQAGDFEAAERHCMQLWRQEPDNTGVLLLLSSIHFQCRRLDRSAHFSTLAIKQNPLLAEAYSNLGNVYKERGQLQEAIEHYRHALRLKPDFIDGYINLAAALVAAGDMEGAVQAYVSALQYNPDLYCVRSDLGNLLKALGRLEEAKACYLKAIETQPNFAVAWSNLGCVFNAQGEIWLAIHHFEKAVTLDPNFLDAYINLGNVLKEARIFDRAVAAYLRALSLSPNHAVVHGNLACVYYEQGLIDLAIDTYRRAIELQPHFPDAYCNLANALKEKGSVAEAEDCYNTALRLCPTHADSLNNLANIKREQGNIEEAVRLYRKALEVFPEFAAAHSNLASVLQQQGKLQEALMHYKEAIRISPTFADAYSNMGNTLKEMQDVQGALQCYTRAIQINPAFADAHSNLASIHKDSGNIPEAIASYRTALKLKPDFPDAYCNLAHCLQIVCDWTDYDERMKKLVSIVAEQLEKNRLPSVHPHHSMLYPLSHGFRKAIAERHGNLCLDKINVLHKPPYEHPKDLKLSDGRLRVGYVSSDFGNHPTSHLMQSIPGMHNPDKFEVFCYALSPDDGTNFRVKVMAEANHFIDLSQIPCNGKAADRIHQDGIHILVNMNGYTKGARNELFALRPAPIQAMWLGYPGTSGALFMDYIITDQETSPAEVAEQYSEKLAYMPHTFFIGDHANMFPHLKKKAVIDFKSNGHIYDNRIVLNGIDLKAFLDSLPDVKIVKMKCPDGGDNPDSSNTALNMPVIPMNTIAEAVIEMINRGQIQITINGFSISNGLATTQINNKAATGEEVPRTIIVTTRSQYGLPEDAIVYCNFNQLYKIDPSTLQMWANILKRVPNSVLWLLRFPAVGEPNIQQYAQNMGLPQNRIIFSPVAPKEEHVRRGQLADVCLDTPLCNGHTTGMDVLWAGTPMVTMPGETLASRVAASQLTCLGCLELIAKSRQEYEDIAVKLGTDLEYLKKIRGKVWKQRISSPLFNTKQYTMELERLYLQMWEHYAAGNKPDHMIKPVEVTESA"
